The list shows a part of the results. Residues, ends and D or L forms follow the SMILES beside them. *: point of attachment. Cbz = O=C(OCc1ccccc1)*
Legend:
Experiment in all cases: log2 fold change, soluble protein after heating vs DMSO (PISA); higher = thermal stabilisation; K562 cells, 10 uM, 30 min; active = over 0.2 and 3.5 SD of the protein, either way, in both replicates (recomputed)
erlotinib = compound: C#Cc1cccc(Nc2ncnc3cc(OCCOC)c(OCCOC)cc23)c1 [erlotinib]
Outline: (§1)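 Thermal stability values are relative to control samples and come from duplicates. They are expressed as log2 fold changes. For measurement, K562 cells (2×10^6 cells/mL) received 10 μM compound for 30 min, and aliquots were heated for 3 min over 48°C-58°C, pooled, and extracted at 4°C in PBS with 0.5% NP-40. Soluble protein, the supernatant after 21,000xg for 90 min, was quantified by TMTpro 16plex LC-MS/MS with equalised channel sums.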

By UniProt entry, the sequences of proteins in these tests, tags left out. Where a name states a change or a piece, a line headed by the entry shows the natural chain unless it says otherwise.
UniProt P49591: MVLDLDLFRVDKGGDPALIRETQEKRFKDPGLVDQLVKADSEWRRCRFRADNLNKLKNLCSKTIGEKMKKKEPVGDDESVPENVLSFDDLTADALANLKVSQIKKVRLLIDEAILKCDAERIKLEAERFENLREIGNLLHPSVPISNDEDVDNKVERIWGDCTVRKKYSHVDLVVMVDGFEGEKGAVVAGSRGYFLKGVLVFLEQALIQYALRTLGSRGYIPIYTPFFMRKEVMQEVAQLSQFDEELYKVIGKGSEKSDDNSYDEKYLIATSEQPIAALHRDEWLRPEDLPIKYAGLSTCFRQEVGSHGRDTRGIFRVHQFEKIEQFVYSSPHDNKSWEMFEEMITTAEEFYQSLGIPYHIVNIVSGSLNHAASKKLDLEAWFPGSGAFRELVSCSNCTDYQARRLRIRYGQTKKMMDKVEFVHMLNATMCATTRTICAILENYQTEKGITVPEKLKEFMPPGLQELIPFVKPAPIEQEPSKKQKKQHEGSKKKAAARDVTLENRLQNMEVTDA

[1] = compound: C/C(=N\NC(=O)C1=CC(=CC=C1)S(=O)(=O)N2CCOCC2)/C3=C(C=CC(=C3)Cl)O
Outline: as §1

[2] = compound: C1=CC(=C(C=C1Cl)C2=NC3=NC=CN=C3C(=N2)NC4=CC=NC=C4)F
Outline: as §1

[3] = compound: C1=CC(=CC=C1C2=NC3=C(N2)C=C(C=C3)C(=O)N)OC4=CC=C(C=C4)Cl
Outline: as §1

[4] = compound: C1=CC2=C(C=CC(=C2)/C=C\3/C(=O)NC(=NCC4=CC=CS4)S3)N=C1
Outline: as §1

[5] = compound: C1=CC2=NC=CN=C2C=C1/C=C/3\C(=O)NC(=O)S3
Outline: as §1

[6] = compound: C1=CC=C(C=C1)C2=NC(=C(N2)C3=CC=NC=C3)C4=CC(=C(C=C4)Cl)O
Outline: as §1

[7] = compound: C1=CC=C(C=C1)[C@H](COC2=CC3=C(C=C2)NC(=O)N3)NC(=O)C4=CC=CN(C4=O)CC5=CC(=C(C=C5)F)F
Outline: as §1

[8] = compound: C1=CC=C2C(=C1)C3=NNC4=CC=CC(=C43)C2=O
Outline: as §1

[9] = compound: C1CCN(C1)C(=O)NC2=CC=CC(=C2)NC3=NC=C(C(=N3)NCCC4=CN=CN4)Br
Outline: as §1

[10] = compound: C1CN(CCC1(CC2=CC=C(C=C2)Cl)N)C3=NC=NC4=C3C=CN4
Outline: as §1

IRAK-1-4 Inhibitor I = compound: C1COCCN1CCN2C3=CC=CC=C3N=C2NC(=O)C4=CC(=CC=C4)[N+](=O)[O-] [IRAK-1-4 Inhibitor I]
Outline: as §1

ibrutinib = compound: C=CC(=O)N1CCC[C@@H](n2nc(-c3ccc(Oc4ccccc4)cc3)c3c(N)ncnc32)C1 [ibrutinib]
Outline: as §1

[11] = compound: CC(=O)c1cnc2ccc(-c3cc(Cl)c(O)c(Cl)c3)nc2c1N[C@H]1CC[C@H](CN(C)C)CC1
Outline: as §1

ralimetinib = compound: CC(C)(C)Cn1c(N)nc2ccc(-c3[nH]c(C(C)(C)C)nc3-c3ccc(F)cc3)nc21 [ralimetinib]
Outline: as §1

[12] = compound: CC(C)(O)CC(=O)NCCn1ccc2ncnc(Nc3ccc(Oc4cccc(C(F)(F)F)c4)c(Cl)c3)c21
Outline: as §1

[13] = compound: CC(C)C1=C2N=C(C=C(N2N=C1)NCC3=CC=CC=C3)NCCCCCCN
Outline: as §1

[14] = compound: CC(C)C[C@@H](C=O)NC(=O)[C@H](CC(C)C)NC(=O)[C@H](CC(C)C)NC(=O)OCc1ccccc1
Outline: as §1

pinometostat = compound: CC(C)N(C[C@H]1O[C@@H](n2cnc3c(N)ncnc32)[C@H](O)[C@@H]1O)[C@H]1C[C@@H](CCc2nc3cc(C(C)(C)C)ccc3[nH]2)C1 [pinometostat]
Outline: as §1

[15] = compound: CC1=C(C(CC(=O)N1)C2=CC=C(C=C2)C(F)(F)F)C(=O)NC3=C(C=C4C(=C3)C=NN4)F
Outline: as §1

[16] = compound: CC1=C(C2=C(C=C1)C(=O)C3=CC=CC=C3N2CCCN)C
Outline: as §1

[17] = compound: CC1=C(C=C(C=C1)NC(=O)C2=CC(=CC=C2)C(C)(C)C#N)NC3=CC4=C(C=C3)N=CN(C4=O)C
Outline: as §1

[18] = compound: CC1=C(C=C(C=C1)NC(=O)C2=CC(=CC=C2)N(C)C)NC(=O)C3=CC=C(C=C3)O
Outline: as §1

[19] = compound: CC1=C(SC2=C1C(=N[C@H](C3=NN=C(N32)C)CC(=O)N)C4=CC=C(C=C4)Cl)C
Outline: as §1

[20] = compound: CC1=C2C(=CC=C1)N=C(N(C2=O)C3=CC=CC=C3C)CN4C=NC5=C(N=CN=C54)N
Outline: as §1

[21] = compound: CC1=CC=C(C=C1)SC2=C3C=C(SC3=CN=C2)C(=O)N
Outline: as §1

[22] = compound: CC1=NC(=CC=C1)C2=C(N=C(N2)C(C)(C)C)C3=CC4=NC=CN=C4C=C3
Outline: as §1

Nexturastat A = compound: CCCCN(Cc1ccc(C(=O)NO)cc1)C(=O)Nc1ccccc1 [Nexturastat A]
Outline: as §1

vemurafenib = compound: CCCS(=O)(=O)Nc1ccc(F)c(C(=O)c2c[nH]c3ncc(-c4ccc(Cl)cc4)cc23)c1F [vemurafenib]
Outline: as §1

[23] = compound: CCCS(=O)(=O)Nc1ccc(F)c(C(=O)c2c[nH]c3ncc(Cl)cc23)c1F
Outline: as §1

[24] = compound: CCCc1cc(C)[nH]c(=O)c1CNC(=O)c1cc(-c2ccnc(N3CCN(C)CC3)c2)cc2c1cnn2C(C)C
Outline: as §1

givinostat = compound: CCN(CC)Cc1ccc2cc(COC(=O)Nc3ccc(C(=O)NO)cc3)ccc2c1 [givinostat]
Outline: as §1

barasertib = compound: CCN(CCCOc1ccc2c(Nc3cc(CC(=O)Nc4cccc(F)c4)[nH]n3)ncnc2c1)CCOP(=O)(O)O [barasertib]
Outline: as §1

[25] = compound: CC[C@@H]1C(=O)N(C)c2cnc(Nc3ccc(C(=O)NC4CCN(C)CC4)cc3OC)nc2N1C1CCCC1
Outline: as §1

volasertib = compound: CC[C@@H]1C(=O)N(C)c2cnc(Nc3ccc(C(=O)N[C@H]4CC[C@H](N5CCN(CC6CC6)CC5)CC4)cc3OC)nc2N1C(C)C [volasertib]
Outline: as §1

[26] = compound: CC[C@H](C)N1C=C(C2=C(C=C(C=C21)C3=CN=C(C=C3)N4CCNCC4)C(=O)NCC5=C(C=C(NC5=O)C)C)C
Outline: as §1

epoxomicin = compound: CC[C@H](C)[C@@H](C(=O)N[C@@H]([C@@H](C)O)C(=O)N[C@@H](CC(C)C)C(=O)[C@]1(CO1)C)NC(=O)[C@H]([C@@H](C)CC)N(C)C(=O)C [epoxomicin]
Outline: as §1

[27] = compound: CCn1c(C(=O)N(C2CC2)C2CC2)cc2c3c(ncn3C)c(Nc3cc(C)n(C)n3)nc21
Outline: as §1

[28] = compound: CCn1cc(-c2ccnc3[nH]c(-c4cccc(CN(C)C)c4)cc23)c(-c2ccc(NC(=O)N(C)C)cc2)n1
Outline: as §1

[29] = compound: CN(C)CC(=O)Nc1ccc2[nH]c(=O)c3ccccc3c2c1
Outline: as §1

rosiglitazone = compound: CN(CCOC1=CC=C(C=C1)C[C@H]2C(=O)NC(=O)S2)C3=CC=CC=N3 (racemic) [rosiglitazone]
Outline: as §1

[30] = compound: CN1C2=C(C3=C1C(=O)N(N=C3)CC4=CC(=CC=C4)N)SC(=C2)S(=O)C
Outline: as §1

[31] = compound: CN1CCC(CNc2ccc3ncc(-c4cccc(OC(F)(F)F)c4)n3n2)CC1
Outline: as §1

saracatinib = compound: CN1CCN(CCOc2cc(OC3CCOCC3)c3c(Nc4c(Cl)ccc5c4OCO5)ncnc3c2)CC1 [saracatinib]
Outline: as §1

sotrastaurin = compound: CN1CCN(c2nc(C3=C(c4c[nH]c5ccccc45)C(=O)NC3=O)c3ccccc3n2)CC1 [sotrastaurin]
Outline: as §1

alvocidib = compound: CN1CC[C@H](c2c(O)cc(O)c3c(=O)cc(-c4ccccc4Cl)oc23)[C@H](O)C1 [alvocidib]
Outline: as §1

Tubastatin A = compound: CN1CCc2c(c3ccccc3n2Cc2ccc(C(=O)NO)cc2)C1 [Tubastatin A]
Outline: as §1

[32] = compound: CNC(=O)C1=CC=CC=C1NC2=NC(=NC=C2Cl)NC3=C(C=C(C=C3)N4CCOCC4)OC
Outline: as §1

Measured: log2 fold change

SARS (UniProt P49591)
inactive: erlotinib 0.008 | [1] 0.013 | [2] 0.046 | [3] -0.02 | [4] -0.017 | [5] -0.009 | [6] 0.038 | [7] 0.013 | [8] 0.014 | [9] 0.019 | [10] 0.009 | IRAK-1-4 Inhibitor I 0.009 | ibrutinib 0.015 | [11] 0.031 | ralimetinib -0.049 | [12] -0.015 | [13] 0.018 | [14] -0.006 | pinometostat -0.067 | [15] 0.001 | [16] -0.015 | [17] 0.008 | [18] -0.025 | [19] 0.024 | [20] 0.019 | [21] 0.011 | [22] 0.045 | Nexturastat A -0.075 | vemurafenib 0.01 | [23] 0.023 | [24] -0.02 | givinostat -0.011 | barasertib -0.021 | [25] -0.015 | volasertib 0.035 | [26] -0.01 | epoxomicin 0.033 | [27] 0.003 | [28] 0.019 | [29] 0.006 | rosiglitazone 0.02 | [30] -0.063 | [31] -0.03 | saracatinib 0.024 | sotrastaurin 0.01 | alvocidib -0.017 | Tubastatin A 0.004 | [32] 0.022

Source: the supplement of paper PMC10849652
